The other results are listed elsewhere or left out.
Experiments:
Assay in all cases: log2 fold change, soluble protein after heating vs DMSO (PISA); higher = thermal stabilisation; K562 lysate, 10 uM; active = over 0.2 and 3.5 SD of the protein, either way, in both replicates (recomputed)
[1] = compound: NCC(=O)Nc1ccc(-n2nc(C(F)(F)F)cc2-c2ccc3c(ccc4ccccc43)c2)cc1
How it was run: (§1)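 Pellets of K562 cells were dounce-homogenised in PBS pH 7.4 with 1 mM MgCl2, and the crude extract was held at 1 mg/mL protein for a 30 min treatment with 10 μM compound. Aliquots were heated for 3 min over 48°C-58°C and pooled before NP-40 was added to 0.5% at 4°C. The supernatant from 21,000xg for 90 min was quantified by TMTpro 16plex LC-MS/MS with channel sums equalised. Values are reported from duplicates as log-two fold change in thermal stability relative to solvent controls.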

The chains behind the UniProt entries cited, without tags or fusion partners. Where a name states a change or a piece, a line headed by the entry shows the natural chain unless it says otherwise.
UniProt Q8N9N5: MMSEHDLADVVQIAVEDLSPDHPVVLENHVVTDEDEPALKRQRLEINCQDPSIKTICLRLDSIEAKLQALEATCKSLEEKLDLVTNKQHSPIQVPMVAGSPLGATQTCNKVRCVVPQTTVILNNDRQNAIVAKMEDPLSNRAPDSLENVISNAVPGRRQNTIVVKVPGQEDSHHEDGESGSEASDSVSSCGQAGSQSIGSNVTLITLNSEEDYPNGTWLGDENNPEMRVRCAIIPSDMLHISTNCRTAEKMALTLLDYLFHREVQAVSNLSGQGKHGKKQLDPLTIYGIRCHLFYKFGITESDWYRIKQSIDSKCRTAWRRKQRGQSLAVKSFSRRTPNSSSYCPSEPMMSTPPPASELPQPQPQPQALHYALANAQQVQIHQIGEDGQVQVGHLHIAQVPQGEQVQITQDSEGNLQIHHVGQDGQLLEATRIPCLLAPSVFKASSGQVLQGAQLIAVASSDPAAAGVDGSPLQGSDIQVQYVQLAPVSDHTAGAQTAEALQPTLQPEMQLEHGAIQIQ
UniProt O15155: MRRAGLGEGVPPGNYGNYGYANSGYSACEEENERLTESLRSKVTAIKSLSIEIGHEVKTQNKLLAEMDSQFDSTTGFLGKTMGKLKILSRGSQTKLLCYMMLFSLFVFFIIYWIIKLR
UniProt Q5H9F3: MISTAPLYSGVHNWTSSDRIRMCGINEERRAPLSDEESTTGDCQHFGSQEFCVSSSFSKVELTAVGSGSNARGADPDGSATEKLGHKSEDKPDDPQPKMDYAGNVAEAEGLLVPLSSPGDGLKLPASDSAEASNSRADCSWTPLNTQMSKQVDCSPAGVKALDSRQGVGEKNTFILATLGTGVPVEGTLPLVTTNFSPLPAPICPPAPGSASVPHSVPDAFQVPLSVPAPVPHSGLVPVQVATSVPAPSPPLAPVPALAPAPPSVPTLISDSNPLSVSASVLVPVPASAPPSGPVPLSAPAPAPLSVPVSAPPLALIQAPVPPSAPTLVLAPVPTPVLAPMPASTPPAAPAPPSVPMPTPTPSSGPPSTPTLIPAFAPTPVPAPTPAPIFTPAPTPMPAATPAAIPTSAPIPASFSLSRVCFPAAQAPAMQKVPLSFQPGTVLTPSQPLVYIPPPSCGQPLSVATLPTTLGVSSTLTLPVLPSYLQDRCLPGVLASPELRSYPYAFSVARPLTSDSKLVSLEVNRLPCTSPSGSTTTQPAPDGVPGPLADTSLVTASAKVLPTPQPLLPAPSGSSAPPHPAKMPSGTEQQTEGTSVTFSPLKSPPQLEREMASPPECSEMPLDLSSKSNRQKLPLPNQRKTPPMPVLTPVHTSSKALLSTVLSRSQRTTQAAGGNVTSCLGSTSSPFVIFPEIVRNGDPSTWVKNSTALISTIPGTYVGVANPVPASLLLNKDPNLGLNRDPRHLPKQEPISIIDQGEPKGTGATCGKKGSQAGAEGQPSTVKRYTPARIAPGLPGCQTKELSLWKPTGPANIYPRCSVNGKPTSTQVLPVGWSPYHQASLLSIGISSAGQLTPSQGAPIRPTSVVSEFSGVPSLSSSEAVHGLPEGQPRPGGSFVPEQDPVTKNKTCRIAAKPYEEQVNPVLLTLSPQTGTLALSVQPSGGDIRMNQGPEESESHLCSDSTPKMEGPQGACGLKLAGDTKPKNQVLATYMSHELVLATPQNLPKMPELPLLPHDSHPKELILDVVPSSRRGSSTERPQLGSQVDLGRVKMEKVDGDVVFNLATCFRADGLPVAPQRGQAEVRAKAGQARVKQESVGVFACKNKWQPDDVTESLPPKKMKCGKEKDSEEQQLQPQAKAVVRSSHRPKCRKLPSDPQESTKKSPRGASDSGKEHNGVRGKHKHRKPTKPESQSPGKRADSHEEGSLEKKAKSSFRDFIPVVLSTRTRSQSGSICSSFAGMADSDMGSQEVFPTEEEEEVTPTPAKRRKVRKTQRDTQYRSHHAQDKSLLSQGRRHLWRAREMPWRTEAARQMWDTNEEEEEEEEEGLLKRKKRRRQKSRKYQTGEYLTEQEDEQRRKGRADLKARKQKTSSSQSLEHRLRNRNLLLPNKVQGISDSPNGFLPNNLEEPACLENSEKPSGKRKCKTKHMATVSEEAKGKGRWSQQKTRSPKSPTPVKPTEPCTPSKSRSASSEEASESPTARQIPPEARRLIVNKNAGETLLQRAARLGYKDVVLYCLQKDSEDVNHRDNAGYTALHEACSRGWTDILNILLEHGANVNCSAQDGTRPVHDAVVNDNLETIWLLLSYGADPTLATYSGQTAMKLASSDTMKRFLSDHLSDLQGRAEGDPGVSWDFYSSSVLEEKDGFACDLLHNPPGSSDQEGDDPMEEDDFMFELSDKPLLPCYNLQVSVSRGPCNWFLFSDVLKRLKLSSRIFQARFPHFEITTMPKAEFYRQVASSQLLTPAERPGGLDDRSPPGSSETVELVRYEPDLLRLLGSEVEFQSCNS
UniProt Q9UIG0: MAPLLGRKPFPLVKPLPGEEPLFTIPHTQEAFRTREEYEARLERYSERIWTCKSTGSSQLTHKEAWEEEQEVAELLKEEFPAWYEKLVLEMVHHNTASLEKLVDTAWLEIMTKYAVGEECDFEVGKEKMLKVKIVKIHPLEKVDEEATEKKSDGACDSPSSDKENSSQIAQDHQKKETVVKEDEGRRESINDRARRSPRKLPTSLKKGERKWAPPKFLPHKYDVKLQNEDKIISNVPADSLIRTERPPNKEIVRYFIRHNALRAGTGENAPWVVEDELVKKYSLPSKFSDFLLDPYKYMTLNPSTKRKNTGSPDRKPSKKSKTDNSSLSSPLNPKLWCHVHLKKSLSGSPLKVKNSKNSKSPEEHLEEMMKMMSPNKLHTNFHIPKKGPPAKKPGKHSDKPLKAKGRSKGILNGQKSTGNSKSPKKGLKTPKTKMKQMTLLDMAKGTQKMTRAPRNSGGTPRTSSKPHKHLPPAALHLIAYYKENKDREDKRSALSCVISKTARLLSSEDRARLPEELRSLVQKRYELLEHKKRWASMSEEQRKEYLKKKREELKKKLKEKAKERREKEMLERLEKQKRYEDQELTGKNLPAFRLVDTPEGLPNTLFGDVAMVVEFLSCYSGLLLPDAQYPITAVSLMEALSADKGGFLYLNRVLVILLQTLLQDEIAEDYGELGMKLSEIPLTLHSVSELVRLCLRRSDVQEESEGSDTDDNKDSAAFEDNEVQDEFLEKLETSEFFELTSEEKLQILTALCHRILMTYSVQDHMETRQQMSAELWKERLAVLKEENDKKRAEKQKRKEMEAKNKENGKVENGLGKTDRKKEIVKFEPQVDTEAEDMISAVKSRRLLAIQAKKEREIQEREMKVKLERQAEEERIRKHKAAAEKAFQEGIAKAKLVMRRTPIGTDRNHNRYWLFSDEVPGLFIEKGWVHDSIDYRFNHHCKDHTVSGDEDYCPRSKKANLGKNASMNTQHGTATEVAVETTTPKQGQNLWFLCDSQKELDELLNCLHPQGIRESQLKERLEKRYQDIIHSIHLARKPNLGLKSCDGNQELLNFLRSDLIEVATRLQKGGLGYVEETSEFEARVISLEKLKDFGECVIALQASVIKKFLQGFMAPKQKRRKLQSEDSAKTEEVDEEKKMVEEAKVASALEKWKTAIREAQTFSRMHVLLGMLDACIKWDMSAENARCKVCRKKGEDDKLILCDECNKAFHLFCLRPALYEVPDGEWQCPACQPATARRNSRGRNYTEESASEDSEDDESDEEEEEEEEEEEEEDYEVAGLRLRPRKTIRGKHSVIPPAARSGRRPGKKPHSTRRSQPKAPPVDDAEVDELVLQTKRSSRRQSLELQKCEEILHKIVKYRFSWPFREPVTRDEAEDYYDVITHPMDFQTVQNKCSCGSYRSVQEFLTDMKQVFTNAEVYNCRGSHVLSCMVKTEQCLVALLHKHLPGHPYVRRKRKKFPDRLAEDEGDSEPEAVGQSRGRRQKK
UniProt Q9NW68: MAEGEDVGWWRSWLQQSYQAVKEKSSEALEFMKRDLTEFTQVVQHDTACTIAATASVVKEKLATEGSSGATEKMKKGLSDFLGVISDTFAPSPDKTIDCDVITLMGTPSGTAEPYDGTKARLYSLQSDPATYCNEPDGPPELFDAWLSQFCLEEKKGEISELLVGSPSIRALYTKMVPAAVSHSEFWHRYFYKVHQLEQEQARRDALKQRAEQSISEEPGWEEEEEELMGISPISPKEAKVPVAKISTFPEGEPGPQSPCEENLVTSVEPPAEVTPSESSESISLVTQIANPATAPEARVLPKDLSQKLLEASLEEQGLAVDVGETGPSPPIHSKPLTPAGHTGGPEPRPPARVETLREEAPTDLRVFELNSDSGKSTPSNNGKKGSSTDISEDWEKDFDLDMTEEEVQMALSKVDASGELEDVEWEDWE
UniProt P55957: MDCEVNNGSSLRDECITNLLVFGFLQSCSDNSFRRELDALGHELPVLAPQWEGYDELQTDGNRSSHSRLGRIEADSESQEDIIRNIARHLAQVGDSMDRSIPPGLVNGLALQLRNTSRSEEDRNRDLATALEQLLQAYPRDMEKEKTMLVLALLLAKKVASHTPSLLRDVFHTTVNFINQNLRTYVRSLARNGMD
UniProt Q16611: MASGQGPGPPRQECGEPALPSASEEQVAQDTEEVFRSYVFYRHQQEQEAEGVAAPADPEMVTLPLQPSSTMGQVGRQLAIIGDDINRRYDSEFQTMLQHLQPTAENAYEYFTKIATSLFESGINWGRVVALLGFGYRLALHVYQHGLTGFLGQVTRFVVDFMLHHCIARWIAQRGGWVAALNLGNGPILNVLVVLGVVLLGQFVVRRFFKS
UniProt Q96Q07: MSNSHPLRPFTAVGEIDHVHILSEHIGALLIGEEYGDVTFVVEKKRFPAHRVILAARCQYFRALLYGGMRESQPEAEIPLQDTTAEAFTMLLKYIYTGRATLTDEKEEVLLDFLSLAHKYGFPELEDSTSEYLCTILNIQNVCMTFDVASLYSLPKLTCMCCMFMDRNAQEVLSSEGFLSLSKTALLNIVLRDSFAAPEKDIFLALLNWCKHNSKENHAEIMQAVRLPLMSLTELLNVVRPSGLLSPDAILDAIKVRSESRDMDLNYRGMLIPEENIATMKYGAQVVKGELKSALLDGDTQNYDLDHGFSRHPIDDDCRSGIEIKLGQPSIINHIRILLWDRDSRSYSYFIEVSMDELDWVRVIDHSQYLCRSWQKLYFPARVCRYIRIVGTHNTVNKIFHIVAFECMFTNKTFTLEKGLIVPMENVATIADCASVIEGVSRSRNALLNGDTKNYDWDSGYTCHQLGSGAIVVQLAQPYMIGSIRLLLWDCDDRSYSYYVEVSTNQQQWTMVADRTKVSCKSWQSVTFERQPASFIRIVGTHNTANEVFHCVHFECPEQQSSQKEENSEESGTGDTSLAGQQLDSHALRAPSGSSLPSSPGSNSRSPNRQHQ
UniProt Q8WY22: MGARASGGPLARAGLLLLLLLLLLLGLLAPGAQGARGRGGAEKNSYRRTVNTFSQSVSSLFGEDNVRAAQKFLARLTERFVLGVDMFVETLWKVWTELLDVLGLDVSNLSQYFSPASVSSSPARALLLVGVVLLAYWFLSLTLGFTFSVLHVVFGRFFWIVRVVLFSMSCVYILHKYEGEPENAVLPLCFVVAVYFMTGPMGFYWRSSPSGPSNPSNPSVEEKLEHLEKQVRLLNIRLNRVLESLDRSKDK
UniProt Q5PSV4: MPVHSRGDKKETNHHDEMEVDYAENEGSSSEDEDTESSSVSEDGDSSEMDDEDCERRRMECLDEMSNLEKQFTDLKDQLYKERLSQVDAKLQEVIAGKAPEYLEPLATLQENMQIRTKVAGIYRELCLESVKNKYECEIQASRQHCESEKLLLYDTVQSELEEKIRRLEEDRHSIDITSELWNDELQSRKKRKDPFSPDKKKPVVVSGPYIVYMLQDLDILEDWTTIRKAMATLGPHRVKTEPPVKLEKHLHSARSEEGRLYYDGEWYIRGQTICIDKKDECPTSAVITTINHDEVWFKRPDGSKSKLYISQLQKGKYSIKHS
UniProt Q8TDN6: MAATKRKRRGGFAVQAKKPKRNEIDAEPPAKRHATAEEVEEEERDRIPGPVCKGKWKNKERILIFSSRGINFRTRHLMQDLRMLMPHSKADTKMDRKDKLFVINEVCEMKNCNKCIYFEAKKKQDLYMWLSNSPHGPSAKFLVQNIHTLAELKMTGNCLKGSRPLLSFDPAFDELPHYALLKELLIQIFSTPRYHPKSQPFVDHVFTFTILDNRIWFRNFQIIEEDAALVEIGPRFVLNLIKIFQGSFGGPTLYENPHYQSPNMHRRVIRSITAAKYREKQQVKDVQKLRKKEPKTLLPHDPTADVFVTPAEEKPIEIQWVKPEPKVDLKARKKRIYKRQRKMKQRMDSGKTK
UniProt Q07812, whole entry, looked up: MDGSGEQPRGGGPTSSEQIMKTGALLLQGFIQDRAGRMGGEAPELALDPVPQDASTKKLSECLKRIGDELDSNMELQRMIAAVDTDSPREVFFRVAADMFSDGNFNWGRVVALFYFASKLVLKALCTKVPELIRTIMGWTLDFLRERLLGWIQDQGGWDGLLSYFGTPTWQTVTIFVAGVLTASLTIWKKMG

vorinostat = compound: O=C(CCCCCCC(=O)Nc1ccccc1)NO [vorinostat]
How it was run: as §1

silmitasertib = compound: O=C(O)c1ccc2c(c1)nc(Nc1cccc(Cl)c1)c1ccncc12 [silmitasertib]
How it was run: as §1

[2] = compound: O=C1NC(=O)C(c2cnc3ccccn23)=C1c1cn2c3c(cc(F)cc13)CN(C(=O)N1CCCCC1)CC2
How it was run: as §1

entospletinib = compound: c1cn2cc(-c3ccc4cn[nH]c4c3)nc(Nc3ccc(N4CCOCC4)cc3)c2n1 [entospletinib]
How it was run: as §1

Target | log2 fold change [1] | log2 fold change (vorinostat) | log2 fold change (silmitasertib) | log2 fold change [2] | log2 fold change (entospletinib)
BCKDK (UniProt O14874) | inactive: -0.01 | inactive: 0.025 | inactive: 0.052 | active: -0.271 | inactive: -0.053
BLOC1S2 (UniProt Q6QNY1) | inactive: 0.062 | inactive: 0.114 | inactive: -0.052 | inactive: -0.11 | inactive: -0.034
BANP (UniProt Q8N9N5) | inactive: 0.131 | inactive: -0.142 | inactive: -0.018 | inactive: -0.068 | inactive: 0.063
BLOC1S1 (UniProt P78537) | inactive: -0.027 | inactive: -0.028 | inactive: -0.026 | inactive: -0.011 | inactive: -0.05
BET1 (UniProt O15155) | inactive: 0.015 | inactive: -0.042 | inactive: -0.008 | inactive: -0.01 | inactive: 0.035
BCORL1 isoform 3 (UniProt Q5H9F3) | inactive: 0.177 | inactive: -0.004 | inactive: -0.093 | inactive: 0.213 | inactive: -0.018
BCKDHB (UniProt P21953) | inactive: 0.055 | active: -0.275 | inactive: 0.076 | inactive: 0.072 | inactive: -0.123
BST2 (UniProt Q10589) | inactive: -0.032 | inactive: 0.09 | inactive: -0.017 | inactive: -0.047 | inactive: -0.004
BTD isoform 3 (UniProt P43251) | inactive: 0.03 | inactive: 0.166 | inactive: -0.018 | inactive: 0.051 | inactive: 0.03
BRCA1 isoform 7 (UniProt P38398) | inactive: 0.114 | inactive: -0.026 | inactive: 0.033 | inactive: -0.004 | inactive: -0.055
BRIP1 (UniProt Q9BX63) | inactive: -0.126 | inactive: -0.18 | inactive: 0.039 | inactive: -0.051 | inactive: -0.038
BAZ1B (UniProt Q9UIG0) | inactive: 0.027 | inactive: 0.02 | inactive: -0.023 | inactive: -0.125 | inactive: -0.018
BAG1 (UniProt Q99933) | inactive: -0.003 | inactive: 0.019 | inactive: 0.003 | inactive: 0.022 | inactive: 0.025
BPGM (UniProt P07738) | inactive: -0.079 | inactive: 0.043 | inactive: -0.01 | inactive: -0.02 | inactive: -0.028
BSDC1 (UniProt Q9NW68) | inactive: -0.073 | inactive: 0.13 | inactive: -0.018 | inactive: 0.024 | inactive: -0.002
BORA (UniProt Q6PGQ7) | inactive: 0.289 | inactive: -0.115 | inactive: -0.027 | inactive: -0.052 | inactive: -0.112
BRD4 (UniProt O60885) | inactive: 0.01 | inactive: -0.115 | inactive: -0.011 | inactive: -0.02 | inactive: -0.028
BAHCC1 (UniProt Q9P281) | inactive: 0.009 | inactive: -0.082 | inactive: -0.086 | inactive: -0.158 | inactive: -0.069
BID isoform 2 (UniProt P55957) | inactive: -0.026 | inactive: 0.13 | inactive: -0.019 | inactive: -0.011 | inactive: -0.052
BAK1 (UniProt Q16611) | inactive: 0.049 | inactive: -0.081 | inactive: 0.11 | inactive: -0.035 | inactive: -0.016
BTF3L4 (UniProt Q96K17) | inactive: -0.053 | inactive: 0.139 | inactive: -0.04 | inactive: 0.027 | inactive: 0.003

Target | log2 fold change [1] | log2 fold change (vorinostat) | log2 fold change (silmitasertib) | log2 fold change [2] | log2 fold change (entospletinib)
BCL2L12 (UniProt Q9HB09) | inactive: 0.031 | inactive: -0.033 | inactive: 0.1 | inactive: -0.085 | inactive: -0.129
BCLAF1 (UniProt Q9NYF8) | inactive: -0.018 | inactive: 0.187 | inactive: -0.045 | inactive: 0.025 | inactive: 0.009
BCAP31, A0A2R8Y5M6 | inactive: 0.029 | – | – | – | inactive: -0.038
BTBD9 (UniProt Q96Q07) | – | inactive: -0.183 | inactive: 0.293 | – | –
BAG2 (UniProt O95816) | inactive: 0.032 | inactive: 0.042 | inactive: 0.023 | inactive: -0.023 | inactive: 0.004
BCL2L11 (UniProt O43521) | inactive: -0.024 | – | – | inactive: -0.024 | –
BRI3BP (UniProt Q8WY22) | inactive: -0.029 | inactive: 0.126 | inactive: -0.035 | – | inactive: -0.008
BAP1 (UniProt Q92560) | inactive: 0.035 | inactive: -0.163 | inactive: 0.033 | inactive: 0.025 | inactive: 0.025
BPTF (UniProt F5GXF5) | – | inactive: 0.121 | inactive: -0.075 | – | –
BRMS1L (UniProt Q5PSV4) | inactive: -0.001 | – | – | – | inactive: -0.102
BCL7C isoform 2 (UniProt Q8WUZ0) | inactive: 0.009 | inactive: 0.041 | inactive: -0.002 | inactive: -0.032 | inactive: -0.043
BLMH (UniProt Q13867) | inactive: -0.002 | inactive: -0.014 | inactive: 0.017 | inactive: -0.023 | inactive: -0.011
BRD3 (UniProt Q15059) | inactive: 0.052 | inactive: -0.117 | inactive: -0.146 | inactive: 0.021 | inactive: -0.018
BBS7 (UniProt Q8IWZ6) | inactive: -0.006 | inactive: -0.354 | inactive: 0.133 | inactive: -0.015 | inactive: -0.007
BCOR (UniProt Q6W2J9) | inactive: -0.082 | inactive: -0.119 | inactive: 0 | inactive: 0.081 | inactive: -0.003
BOD1L1 (UniProt Q8NFC6) | inactive: 0.016 | inactive: 0.013 | inactive: 0.001 | inactive: 0.011 | inactive: -0.009
BAP18 isoform 3 (UniProt Q8IXM2) | inactive: -0.04 | inactive: -0.137 | inactive: -0.279 | – | inactive: -0.09
BTN2A1 (UniProt Q7KYR7) | inactive: -0.051 | inactive: 0.051 | inactive: 0.015 | inactive: 0.012 | inactive: 0.072
BRIX1 (UniProt Q8TDN6) | inactive: -0.004 | inactive: -0.006 | inactive: 0.021 | inactive: 0.014 | inactive: 0.014
BTF3 (UniProt P20290) | inactive: 0.004 | inactive: 0.12 | inactive: -0.01 | inactive: 0.025 | inactive: 0.035
BAX isoform 2 (UniProt Q07812) | inactive: 0.047 | inactive: 0.016 | inactive: -0.024 | inactive: -0.032 | inactive: 0.037

Single records, from the list above.
BRI3BP (UniProt Q8WY22) is entered as log2 fold change [1]: inactive: -0.029; log2 fold change (vorinostat): inactive: 0.126; log2 fold change (silmitasertib): inactive: -0.035; log2 fold change (entospletinib): inactive: -0.008
BAP18 isoform 3 (UniProt Q8IXM2) is entered as log2 fold change [1]: inactive: -0.04; log2 fold change (vorinostat): inactive: -0.137; log2 fold change (silmitasertib): inactive: -0.279; log2 fold change (entospletinib): inactive: -0.09
